In PubChem BioAssay (NCI):
Shown are results outside the selection of hits, which stands elsewhere. Active and inactive are the calls of the source. Cut-off read from the data, not from the text of the source: active = growth inhibition above about 70%; inactive = the rest.

Assay: NCI Yeast Anticancer Drug Screen. Data for the rad52 strain (AID 147);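 note: 0% = growth of vehicle-treated control cultures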
Settings: S. cerevisiae rad52 mutant growth inhibition, hits give high values
Method: Growth inhibition of yeast strains with defined genetic alterations is measured as a screen for potential anti-cancer activity. Selected strains with alterations in DNA damage repair or cell cycle control were exposed to compounds and growth inhibition was measured relative to vehicle treated controls. The strain used in this assay is rad52

Measured: growth inhibition

O=C(O)C(O)C(O)C1[O][Sb][O]C1CO (stereo not given)
inactive: at 1.2 µM 1% | at 3.7 µM 2% | at 11.0 µM 6% | at 33.0 µM 1% | at 100.0 µM -5%

CCOC(=O)CNP(=S)(OCC)OCC
inactive: at 1.2 µM 0% | at 3.7 µM 2% | at 11.0 µM 2% | at 33.0 µM 5% | at 100.0 µM 4%

COc1cc2c3cc1Oc1c(O)c(OC)cc4c1[C@H](Cc1ccc(cc1)Oc1cc(ccc1O)C[C@H]3N(C)CC2)N(C)CC4
inactive: at 1.2 µM -2% | at 3.7 µM -7% | at 11.0 µM -4% | at 33.0 µM -8% | at 100.0 µM -8%

O=P1(NNc2ncccn2)SC(NN=C2CCCCC2)=NC12CCCCC2 (stereo not given)
inactive: at 1.2 µM -2% | at 3.7 µM -4% | at 11.0 µM -1% | at 33.0 µM -1% | at 100.0 µM 4%

CCCCN(CCCC)CC(=O)c1ccc(I)cc1
inactive: at 1.2 µM 0% | at 3.7 µM 1% | at 11.0 µM 9% | at 33.0 µM 21% | at 100.0 µM 45%

O=C(NCP(=O)(Oc1ccccc1)Oc1ccccc1)OCc1ccccc1
inactive: at 1.2 µM -3% | at 3.7 µM -3% | at 11.0 µM -3% | at 33.0 µM -2% | at 100.0 µM -7%

Cc1cc[c]([Sb]2[O]C(CO)C(C(O)C(O)C(=O)O)[O]2)cc1 (stereo not given)
inactive: at 1.2 µM 0% | at 3.7 µM 2% | at 11.0 µM 0% | at 33.0 µM -4% | at 100.0 µM -9%

O=C(CCN1CC1)Nc1ccccc1
inactive: at 1.2 µM -1% | at 3.7 µM 1% | at 11.0 µM 1% | at 33.0 µM -4% | at 100.0 µM 51%
